Results published in PubChem BioAssay AID504444 (National Center for Advancing Translational Sciences (NCATS), 2011).
About 7,500 (2.1%) of roughly 360,000 compounds were called active. This list was built around the results that the source calls inconclusive (neither active nor inactive); the mix of calls is not that of the screen. The call rests on the fitted dose curve; in most records, active means well fitted inhibition curve with a large enough effect; inconclusive means small, poorly fitted or top-dose-only effect, or effect the other way; inactive means flat fitted curve, though single readings scatter. Potencies of inconclusive entries are doubtful fits and often do not repeat.

Experiment: Nrf2 qHTS screen for inhibitors; further: nearly all actives have a fitted effect of over 60% in size
Settings: A549 ARE-Fluc reporter, luciferase luminescence, 18-24 h; activity change, negative = inhibition: at 46 µM (top of the series)
Procedure, shortened: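 Nrf2 activity is the BugLite luminescence, read 15 min after reagent at room temperature, following CellTiter-Fluor cytotoxicity readout (30 min, 37C). Compound titrations were applied for 18-24 h to 5000 A549 ARE_Fluc cells/well in 5% FBS OPTI-MEM.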
On the % scale 0 is the no-effect control and ±100 the full control effect; potency means the concentration at half of the fitted maximal effect.

Row | Compound | Potency | activity change, negative = inhibition
1 | CCOc1ccc(N2C(=O)c3[nH]nc(-c4ccc(OC)cc4)c3C2c2cccs2)cc1 (centres undefined) | active: 23.1 µM | 
2 | O=C(NCc1ccc(Cl)cc1)c1ccc(Cn2c(=O)c3cccn3c3cccnc32)cc1 | inconclusive: 6.51 µM [falling, single point] | 
3 | COc1ccc(/C=C2\SC(=NCc3ccccc3)NC2=O)cc1 | inactive | 
4 | CCC(=O)Nc1cccc(-c2nc3ccc(C)cc3o2)c1 | inconclusive: 11.6 µM [activator, partial curve] | 
5 | CN(C)c1ccc(N=Nc2ccc(S(N)(=O)=O)cc2)cc1 | inconclusive: 11.6 µM [activator, partial curve] | 
6 | Oc1ccccc1Nc1nc2ccccc2n2nnnc12 | inconclusive: 23.1 µM [activator, single point] | 
7 | CCn1ncc(Br)c1C(=O)Nc1ccc(C(=O)OC(C)C)cc1 | inconclusive: 9.2 µM [falling, partial curve, poor fit] | 
8 | CCCCOc1ncnc2c1[nH]c1ccccc12 | active: 8.2 µM | 
9 | COCCn1c(=O)[nH]c2cc(C(=O)Nc3nnc(C)s3)ccc21 | inactive | 
10 | O=S(=O)(Nc1cc(Cl)ccc1N1CCOCC1)c1ccccc1Cl | inconclusive: 25.9 µM [falling, partial curve, poor fit] | 
11 | O=C(c1ccc(=O)n(Cc2ccccc2)n1)N1CCN(C/C=C/c2ccccc2)CC1 | inconclusive: 18.4 µM [falling, single point] | 
12 | CCn1c(SCC(=O)Nc2ccccc2)nc2nc3c(cc2c1=O)COC(C)(C)C3 | inactive | 
13 | Cc1csc(NC(=O)CSc2nnc(-c3cc(C)on3)o2)n1 | inconclusive: 20.6 µM [activator, single point] | 
14 | Cc1csc(SCCn2c(N3CCN(c4ccccc4)CC3)nc3c2c(=O)[nH]c(=O)n3C)n1 | inactive | 
15 | CCN(C(=O)C(C)Sc1nnc(-c2ccncc2)n1C)C1CCCCC1 (centres undefined) | inactive | 
16 | COc1cc(NS(=O)(=O)c2ccc(-c3ccc(=O)[nH]n3)o2)cc(OC)c1OC | inactive | 
17 | Clc1ccc(-c2nnc(-c3cccnc3)o2)cc1 | inactive | 
18 | CCCN1C(=O)c2cc(C(=O)Nc3ccccc3C)ccc2C1Nc1ccccc1C (centres undefined) | inconclusive: 20.6 µM [falling, single point] | 
19 | O=C(Nc1ccccc1F)C1CCCN(S(=O)(=O)c2ccc(-n3cnnn3)cc2)C1 (centres undefined) | inconclusive: 14.6 µM [falling, partial curve, poor fit] | 
20 | COc1cccc(/C=N/NC(N)=S)c1OCc1cccc(Cl)c1 | active: 16.4 µM | 
21 | CCCC(C(=O)NC1CCCC1)N(Cc1cccs1)C(=O)c1snc(C(N)=O)c1N (centres undefined) | inactive | 
22 | Cc1ccc(-c2noc(CCCC(=O)Nc3cccnc3)n2)cc1 | inconclusive: 29.1 µM [falling, single point] | 
23 | CCOCc1cc(CN2CCN(c3ccccc3OC)CC2)c(O)c2ncccc12 | inconclusive: 18.4 µM [falling, single point] | 

Row | Compound | Potency | activity change, negative = inhibition
24 | O=C(Nc1csc([N+](=O)[O-])c1)Nc1ccccc1Cl | inconclusive: 10.3 µM [falling, partial curve, poor fit] | 
25 | CCOc1ccc(NC(=O)CSc2oc(-c3ccccc3)nc2S(=O)(=O)c2ccc(Cl)cc2)cc1 |  | inactive: 7.48% [at 9.27 µM]
26 | CN(Cc1cccc2cnccc12)C(=O)c1cc(COc2ccc(F)cc2Cl)on1 | inconclusive: 23.1 µM [falling, single point] | 
27 | COc1cccc(NC(=O)Cn2cc(S(=O)(=O)Cc3ccccc3F)c3ccccc32)c1 | inconclusive: 29.1 µM [falling, single point] | 
28 | CCCCN(CCCC)c1nc2ccccc2nc1C(C#N)C(=O)NCCCOC (centres undefined) | inactive | 
29 | Cc1ccc2nc(N(CCN3CCOCC3)C(=O)CCS(=O)(=O)c3ccccc3)sc2c1 | inconclusive: 2.91 µM [activator, full curve] | 
30 | CN(C)CCNc1nc2sc3c(c2c(=O)n1-c1ccc(F)cc1)CCCCC3 | inactive | 
31 | CN(C)c1cccc(C(=O)Nc2cccc(F)c2)c1 | inconclusive: 29.1 µM [activator, single point] | 
32 | CCn1c2ccccc2c2cc(N=C3SC(CC(=O)Nc4ccccc4)C(=O)N3C)ccc21 (centres undefined) | inconclusive: 25.9 µM [falling, single point] | 
33 | COc1cc(C(=O)N2CCN(c3ncnc4sc(C)c(C)c34)CC2)cc(OC)c1OC | active: 10.3 µM | 
34 | O=C(CCn1ccc2cc(S(=O)(=O)N3CCCC3)ccc21)NCc1ccccc1F | inconclusive: 13 µM [activator, partial curve, poor fit] | 
35 | C=CCn1cc(-c2ccc(Cl)cc2)cc(C#N)c1=O | inactive | 
36 | S=c1[nH]nc(-c2cc(-c3ccccc3)n[nH]2)n1/N=C/C(Br)=C/c1ccccc1 | active: 23.1 µM | 
37 | COC(=O)c1cccc(COC(=O)c2cccnc2SC)c1 | inconclusive: 8.2 µM [activator, partial curve] | 
38 | Cc1cc(C)c2c(N)c(C(=O)Nc3ccc(C)c(C)c3)sc2n1 | inconclusive: 8.2 µM [activator, partial curve] | 
39 | CC(=O)N1CCOc2ccc(S(=O)(=O)N3CCN(c4cccc(C(F)(F)F)c4)CC3)cc21 | inconclusive: 29.1 µM [falling, single point] | 
40 | CCOc1ccc(-c2cccc(NS(=O)(=O)c3cc([N+](=O)[O-])ccc3C)c2)nn1 | inconclusive: 29.1 µM [falling, single point] | 
41 | Cc1ccc(S(=O)(=O)c2nnn3c2nc(NCc2cccs2)c2sccc23)cc1 | inconclusive: 16.4 µM [activator, partial curve, poor fit] | 
42 | CCn1nc(C)c2c(-c3ccccc3)cc(=O)n(C(C)C(=O)NCc3ccccc3OC)c21 (centres undefined) | inconclusive: 25.9 µM [falling, partial curve, poor fit] | 
43 | COc1cc(C2(c3ccc(O)c(OC)c3)C(=O)Nc3c(Br)cc(Br)cc32)ccc1O | inconclusive: 29.1 µM [falling, single point] | 
44 | Cc1cccc(CNC(=O)c2ccc3c(c2)c(C)c(C)n3Cc2ccccc2)c1 | inconclusive: 6.51 µM [activator, single point] | 
45 | CCCN1CNc2c(c(=O)[nH]c(=S)n2CCc2ccc(OC)c(OC)c2)C1 | inconclusive: 0.731 µM [falling, full curve] | 
46 | COc1ccc(C(=O)COC(=O)CN2CC(=O)Oc3ccccc32)cc1Br | inactive | 

Reprinted, entries 8–21
Row | Compound | Potency | activity change, negative = inhibition
8 | CCCCOc1ncnc2c1[nH]c1ccccc12 | active: 8.2 µM | 
9 | COCCn1c(=O)[nH]c2cc(C(=O)Nc3nnc(C)s3)ccc21 | inactive | 
10 | O=S(=O)(Nc1cc(Cl)ccc1N1CCOCC1)c1ccccc1Cl | inconclusive: 25.9 µM [falling, partial curve, poor fit] | 
11 | O=C(c1ccc(=O)n(Cc2ccccc2)n1)N1CCN(C/C=C/c2ccccc2)CC1 | inconclusive: 18.4 µM [falling, single point] | 
12 | CCn1c(SCC(=O)Nc2ccccc2)nc2nc3c(cc2c1=O)COC(C)(C)C3 | inactive | 
13 | Cc1csc(NC(=O)CSc2nnc(-c3cc(C)on3)o2)n1 | inconclusive: 20.6 µM [activator, single point] | 
14 | Cc1csc(SCCn2c(N3CCN(c4ccccc4)CC3)nc3c2c(=O)[nH]c(=O)n3C)n1 | inactive | 
15 | CCN(C(=O)C(C)Sc1nnc(-c2ccncc2)n1C)C1CCCCC1 (centres undefined) | inactive | 
16 | COc1cc(NS(=O)(=O)c2ccc(-c3ccc(=O)[nH]n3)o2)cc(OC)c1OC | inactive | 
17 | Clc1ccc(-c2nnc(-c3cccnc3)o2)cc1 | inactive | 
18 | CCCN1C(=O)c2cc(C(=O)Nc3ccccc3C)ccc2C1Nc1ccccc1C (centres undefined) | inconclusive: 20.6 µM [falling, single point] | 
19 | O=C(Nc1ccccc1F)C1CCCN(S(=O)(=O)c2ccc(-n3cnnn3)cc2)C1 (centres undefined) | inconclusive: 14.6 µM [falling, partial curve, poor fit] | 
20 | COc1cccc(/C=N/NC(N)=S)c1OCc1cccc(Cl)c1 | active: 16.4 µM | 
21 | CCCC(C(=O)NC1CCCC1)N(Cc1cccs1)C(=O)c1snc(C(N)=O)c1N (centres undefined) | inactive | 

The list goes on.

Row | Compound | Potency | activity change, negative = inhibition
47 | CN(C(=S)NC(=O)Cc1ccccc1)c1ccccc1 | inconclusive: 29.1 µM [activator, single point] | 
48 | CC(NC(=O)c1ccccc1Cl)C(=O)O (centres undefined) | inconclusive: 5.8 µM [falling, partial curve, poor fit] | 
49 | N#Cc1ccsc1NC(=O)COc1ccc(-c2nnco2)cc1 | inconclusive: 2.59 µM [activator, full curve] | 
50 | COc1ccc(-c2sc3ccccc3c2-c2ccc(OCCN(C)C)cc2)cc1 | inconclusive: 25.9 µM [falling, single point] | 
51 | CCOc1ccc(NC(=O)CSC(N)=O)cc1 | inconclusive: 16.4 µM [falling, partial curve, poor fit] | 
52 | CCn1c(SCCC(C)C)nnc1-c1c[nH]c2ccccc12 | inconclusive: 8.2 µM [falling, partial curve] | 
53 | Cc1nn(-c2ccccc2)c(Cl)c1/C=N/NC(N)=O | inactive | 
54 | Cc1ccc(NC(=O)c2oc(=O)c3ccccc3c2-c2ccccc2)c(C)c1 | inconclusive: 20.6 µM [falling, single point] | 
55 | C/C(=N/Nc1ccc(C(=O)O)cc1)c1ccc2c(c1)Nc1ccccc1S2 | inconclusive: 2.59 µM [activator, partial curve] | 
56 | COc1ccc(C(=O)C(C)N(C(=O)c2ccc(Cl)cc2Cl)N2C(=O)C3C4C=CC(C4)C3C2=O)cc1 (centres undefined) | inconclusive: 20.6 µM [falling, single point] | 
57 | CC(=O)O[C@]1(C(C)=O)CC[C@H]2[C@@H]3C=C(Cl)C4=CC(=O)CC[C@]4(C)[C@H]3CC[C@@]21C | inconclusive: 1.84 µM [falling, partial curve] | 
58 | COc1ccc(-c2noc(CN(C(=O)C(C)Oc3ccc(C)cc3)C(C)C)n2)cc1 (centres undefined) | inconclusive: 32.6 µM [falling, single point] | 
59 | COc1ccc2cc3c(N)nn(C(=O)c4ccccc4Cl)c3nc2c1 | active: 9.2 µM | 
60 | Cc1ccc2nc3sc(C(=O)N4CCCc5ccccc54)c(N)c3cc2c1 | inconclusive: 18.4 µM [falling, single point] | 
61 | O=C(CSc1nccc(-c2cccs2)n1)Nc1cccc(Cl)c1Cl | inactive | 
62 | O=C(CC1Nc2ccccc2NC1=O)NC1CCCCC1 (centres undefined) | inconclusive: 32.6 µM [falling, partial curve, poor fit] | 
63 | CCOC(=O)C1CCN(C(c2ccccn2)c2c(C)[nH]c3ccccc23)CC1 (centres undefined) | inactive | 
64 | CCCc1cc(=O)oc2cc(OCc3nn[nH]n3)ccc12 | inconclusive: 18.4 µM [activator, partial curve, poor fit] | 
65 | COC(=O)C1=CN(Cc2ccc(C)cc2)C=C(C(=O)OC)C1c1ccc(F)c(F)c1 | inconclusive: 29.1 µM [falling, single point] | 
66 | CCOC(=O)c1cc([N+](=O)[O-])c([N+](=O)[O-])cc1NC(C)=O | inactive | 
67 | CC(C)(C)C1CCC(=NNC(=O)c2ccc(Br)o2)CC1 (centres undefined) | inconclusive: 29.1 µM [activator, single point] | 
68 | Cc1cccc(CC(C)NC(=O)CCc2nnc(-c3ccccc3)o2)n1 (centres undefined) | inactive | 
69 | CC(=O)c1c(C)[nH]c(C(=O)OCC(=O)Nc2ccc(Cl)c(S(=O)(=O)N(C)C)c2)c1C | active: 9.2 µM | 
